Assay results taken from PubChem BioAssay AID1487 (National Center for Advancing Translational Sciences (NCATS), 2009).
The other results are listed elsewhere or left out. These are further read-outs of the screen, such as a control signal, another cell line or another target. No call is given for them. The list favours compounds with an active or inconclusive main result. Potencies come from curve fits of mixed quality, noted in brackets.

Assay: qHTS Assay for Modulators of Lamin A Splicing
Conditions: HeLa LMNA splicing GFP/RFP minigene ratio, 48 h
Method in brief: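 S3 HeLa cells stably expressing lamin A-EGFP splicing minigene plus DsRed2, 600 cells/well, 48 h compound exposure at 37C. Laser-scanning cytometry; analysed as GFP (500-530 nm)/RFP (575-640 nm) total intensity ratio; 0.5% DMSO vehicle.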

[1] = measured here: GFP splicing reporter channel
[2] = measured here: RFP viability control channel

Compound | AC50 [1] | AC50 [2]
Cc1c(Cl)cccc1NCC(=O)Nc1ccc(Cl)cc1F | 22.4 µM [rising, single point] | 14.1 µM [rising, partial curve]
COc1ccc(OCC(=O)NCc2ccc3c(c2)CCN3C(=O)c2ccc(F)cc2)cc1 | 5.62 µM [rising, single point] | 
CCc1ccc(-c2nn(CC(=O)NCc3ccccc3)c3c2cnc2ccc(F)cc23)cc1 |  | 39.8 µM [falling, partial curve, poor fit]
Cc1cc(C)c(S(=O)(=O)Nc2ccc(-c3ccc(N4CCCCCC4)nn3)cc2)c(C)c1 | 0.126 µM [falling, partial curve, poor fit] | 
COc1cc(C(=O)Nc2ccc(S(=O)(=O)NC(C)C)cc2)cc(OC)c1OC |  | 35.5 µM [rising, single point]
Cc1cccc(C(=O)NC(=S)NNC(=O)c2ccccc2Cl)c1 | 11.2 µM [rising, partial curve] | 22.4 µM [rising, single point]
CN(CC(=O)NCc1ccccc1)S(=O)(=O)c1ccc2[nH]c3c(c2c1)CCCC3 | 35.5 µM [falling, partial curve] | 11.2 µM [falling, partial curve]
Cc1cc(NC(=O)CSc2nnnn2-c2ccccc2)no1 | 25.1 µM [falling, single point] | 
COC(=O)c1ccc(OCC2c3cc(OC)c(OC)cc3CCN2C(=O)Cc2ccccc2)cc1 (centres undefined) | 2.82 µM [falling, partial curve, poor fit] | 
CN1CCc2nc3sc(C(=O)C45CC6CC(CC(C6)C4)C5)c(N)c3cc2C1 | 35.5 µM [falling, single point] | 35.5 µM [falling, single point]
CCC(=O)N1c2ccccc2[C@@H](N(C(C)=O)c2ccccc2)C[C@H]1C |  | 31.6 µM [rising, single point]
CCN(Cc1ccccc1)S(=O)(=O)c1cc(C(=O)Nc2cc(Cl)cc(Cl)c2)ccc1F |  | 35.5 µM [rising, single point]
Cc1ccc(C2=NC3(CCCC3)N=C2SCC(=O)Nc2ccc3c(c2)OCCO3)cc1 |  | 11.2 µM [rising, partial curve]
COc1ccc(CC(=O)NCc2ccc3c(c2)CCN3C(=O)c2ccc(Cl)cc2)cc1 | 12.6 µM [rising, partial curve, poor fit] | 31.6 µM [rising, single point]
Fc1ccc(OCCCCCCN2CCCC2)cc1 | 3.98 µM [falling, single point] | 3.16 µM [falling, single point]
N#Cc1sc2nc3c(cc2c1N)CCCC3 | 7.08 µM [falling, full curve, poor fit] | 4.47 µM [falling, full curve, poor fit]
CSCC[C@H](NC(=O)OC(C)(C)C)c1nnc(SCc2ccccc2)o1 | 22.4 µM [rising, single point] | 35.5 µM [rising, single point]
N#Cc1nc(-c2ccccc2F)oc1NCc1cccc2c1OCO2 |  | 31.6 µM [rising, single point]
N#CC(C#N)=C1C=C2C=C(N3CCCCC3)CCC2CC1 (centres undefined) | 0.891 µM [falling, full curve] | 1 µM [falling, full curve]
CCOc1ccc(CCNC(=O)CCSCc2ccc(Cl)cc2)cc1OCC |  | 22.4 µM [rising, single point]
O=C(NCCC1=CCCCC1)C1COc2ccccc2O1 (centres undefined) | 0.00447 µM [rising, full curve, poor fit] | 0.00447 µM [rising, full curve, poor fit]
CN(C)Cc1ccccc1-c1nc(NCc2ccccc2)c2ccccc2n1 |  | 12.6 µM [rising, partial curve, poor fit]
N#C/C(=C\C=C\c1ccccc1)C(=O)NCc1cccnc1 |  | 12.6 µM [rising, single point]
CCn1ncc(C(=O)Nc2ccc(S(=O)(=O)N3CCCC3)cc2)c1C | 35.5 µM [rising, single point] | 
O=C(c1ccc(Cl)c(S(=O)(=O)Nc2ccccc2C(=O)N2CCc3ccccc3C2)c1)N1CCc2ccccc2C1 |  | 12.6 µM [rising, single point]
Cc1ccc(NC(=S)NC(=O)c2ccc(F)cc2)cc1S(=O)(=O)Nc1ccccc1Cl |  | 31.6 µM [rising, single point]
COc1ccc(-n2nc([N+](=O)[O-])c(=NCCc3ccccc3)n2O)cc1 |  | 35.5 µM [rising, single point]
CC(C)C1CCC(C(=O)NC(Cc2ccccc2)C(=O)O)CC1 (centres undefined) | 0.708 µM [rising, single point] | 0.794 µM [rising, full curve, poor fit]

Random excerpt: 2 compounds from above, in no set order.
Compound | AC50 [1] | AC50 [2]
O=C(NCCC1=CCCCC1)C1COc2ccccc2O1 (centres undefined) | 0.00447 µM [rising, full curve, poor fit] | 0.00447 µM [rising, full curve, poor fit]
CCn1ncc(C(=O)Nc2ccc(S(=O)(=O)N3CCCC3)cc2)c1C | 35.5 µM [rising, single point] | 

Following part:

Compound | AC50 [1] | AC50 [2]
Cc1ccc2nc(NC(=O)Cn3nc(C)c([N+](=O)[O-])c3C)sc2c1 |  | 0.0891 µM [rising, full curve, poor fit]
O=C(c1ccc(-c2cc(Cl)ccc2Cl)o1)N1CCOCC1 | 0.0708 µM [falling, full curve, poor fit] | 0.0794 µM [falling, full curve, poor fit]
CC(C(=O)Nc1ccccc1C(=O)O)n1c(C(F)(F)F)nc2ccccc21 (centres undefined) |  | 14.1 µM [rising, single point]
Cc1ccc(C(=O)Nc2nnc(S(=O)(=O)N3CCc4ccccc43)s2)cc1 |  | 0.112 µM [falling, full curve, poor fit]
CSc1nc2ccccc2cc1/C=C(\C#N)c1cccc(C)c1 | 25.1 µM [falling, single point] | 20 µM [falling, single point]
CC1CCCCN1S(=O)(=O)c1ccc2c(c1)oc(=O)n2CC(=O)O (centres undefined) | 0.794 µM [falling, full curve, poor fit] | 0.794 µM [falling, full curve, poor fit]
CC1C/C(=C/c2cccn2C)C(=O)/C(=C/c2cccn2C)C1 (centres undefined) |  | 35.5 µM [falling, single point]
CC(=O)NCCn1c(SCC(=O)Nc2ccc(C)cc2)nc2ccccc2c1=O | 4.47 µM [rising, full curve, poor fit] | 
CC(Sc1nc(N)c2c3c(sc2n1)CSC(C)(C)C3)C(=O)Nc1ccccc1 (centres undefined) |  | 12.6 µM [rising, partial curve, poor fit]
CCCCOc1cccc(C(=O)N(Cc2cccs2)c2ccc(OC)cc2)c1 |  | 11.2 µM [rising, single point]
O=C(c1ccc([N+](=O)[O-])cc1)N1CCSC1c1ccccc1Cl (centres undefined) |  | 12.6 µM [falling, partial curve]
Cc1ccccc1CN1C(=O)c2ccccc2Sc2ccc(C(=O)NC3CCCC3)cc21 | 0.02 µM [falling, full curve] | 
Cc1ccc(Cl)cc1-n1ncc2c(N3CCCCCC3)ncnc21 | 31.6 µM [falling, partial curve, poor fit] | 
CCCN1CCN(c2ccc([N+](=O)[O-])cc2C#N)CC1 |  | 0.0501 µM [rising, full curve, poor fit]
COc1ccc(-n2c(C)cc(C(=O)Cn3nc(C(=O)O)c4ccccc4c3=O)c2C)cc1 |  | 35.5 µM [rising, single point]
CC(C)COC[C@H](CN(Cc1ccccc1)c1ccccc1)N1CCCC1 | 0.00631 µM [falling, full curve, poor fit] | 0.00708 µM [falling, partial curve, poor fit]
COc1ccc(-n2nnnc2SCC(=O)c2cc3ccccc3o2)cc1 |  | 35.5 µM [rising, single point]
COc1ccc(/C(N)=N/OC(=O)c2cccs2)cc1OC |  | 0.01 µM [falling, full curve, poor fit]
O=C(OCc1nnc(-c2ccccc2)o1)C12CC3CC(CC(Br)(C3)C1)C2 |  | 0.794 µM [falling, full curve, poor fit]
COc1ccc([C@@H]2CNC(=O)C2)cc1OC1CCCC1 | 3.16 µM [falling, single point] | 0.002 µM [falling, full curve, poor fit]
CCOc1ccc(CCNC(=O)c2ccc(-n3c(C)cc4c3CCC(C)C4)cc2)cc1OCC (centres undefined) | 35.5 µM [falling, single point] | 35.5 µM [falling, single point]
CC1=C(C(=O)Nc2ccc(C)cc2Cl)C2(CCCCCC2)OC1=O | 25.1 µM [rising, partial curve] | 
Cc1ccc(C)c2sc(N3CCN(C(=O)C(C)(C)C)CC3)nc12 | 0.00447 µM [falling, full curve, poor fit] | 
COc1cc(C(=O)Nc2ccc(C(C)=O)cc2)c(Br)c(OC)c1OC | 35.5 µM [rising, single point] | 
CCCCC(CC)CNC(=O)CN(C)S(=O)(=O)c1cccc2nsnc12 (centres undefined) | 17.8 µM [rising, partial curve, poor fit] | 25.1 µM [rising, single point]
O=C(/C=C/c1ccc(O)cc1)c1ccc(NC2=C(N3CCCCC3)C(=O)c3ccccc3C2=O)cc1 | 12.6 µM [rising, partial curve] | 11.2 µM [rising, partial curve]
CCN(CCCNC(=O)c1[nH]c(C)c(C(C)=O)c1C)c1ccccc1 |  | 15.8 µM [rising, single point]
